In ChEMBL document CHEMBL4627394, “A Grand Challenge. 3. Unbiased Phenotypic Function of Metabolites from Australia Plants Gloriosa superba and Alangium villosum against Parkinson's Disease” (J Nat Prod, 2020):

Tests used:
[1] = Cytotoxicity against Parkinson's disease patient derived human ONS cells assessed as effect on nucleus morphology parameters at 10 uM after 24 hrs by DAPI staining based fluorescence assay
[2] = Cytotoxicity against Parkinson's disease patient derived human ONS cells assessed as effect on cell morphology parameters at 10 uM after 24 hrs by DAPI staining based fluorescence assay

Which Activity [1] does the source give for COc1c(O)cc2c(c1OC)-c1ccc(OC)c(=O)cc1[C@@H](NC(C)=O)CC2 [3-DESMETHYLCOLCHICIN] here?
The Activity was “Non-Toxic”.

What about the Activity [2] of the same molecule?
Its Activity is “Non-Toxic”.
